Results published in the supplement of paper PMC8256030.
Values joined by “and” are separate entries in the source; they are usually repeats but may differ in a detail not shown here. Identical values can stand only once. The list shows a part of the results. Single values are uncertain here, since repeats match poorly.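 HEK293T cells were given each compound shortly before transfection with a reporter in which red mCherry is followed by the SARS-CoV-2 frameshift element and then GFP in the −1 frame, so GFP appears only after frameshifting.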

Columns and labels:
[1] = system: SARS-CoV-2 -1 PRF reporter mCherry-FSE-GFP(-1); experiment: mCherry (red) intensity as percent of control; higher = higher upstream reporter expression; details: 10 µM; 24 h; HEK293T
[2] = system: SARS-CoV-2 -1 PRF reporter mCherry-FSE-GFP(-1); experiment: percent effect, decrease of GFP/mCherry ratio (-1 PRF reporter) relative to controls; higher = stronger frameshift inhibition; details: 10 µM; 24 h; HEK293T

SMILES	mCherry [1]	percent effect [2]
CCCC(=O)O[C@]1(C(=O)COC(C)=O)CC[C@H]2[C@@H]3C[C@H](F)C4=CC(=O)C=C[C@]4(C)[C@@]3(F)[C@@H](O)C[C@@]21C [difluprednate]	117%	-3.03%
Cc1c(N(C)CS(=O)(=O)O)c(=O)n(-c2ccccc2)n1C [metamizole sodium]	104%	-0.528%
CCCCC(CC)COc1ccc(-c2nc(-c3ccc(OC)cc3)nc(-c3ccc(OCC(CC)CCCC)cc3O)n2)c(O)c1 (configuration not stated) [bemotrizinol]	84.4%	-6.69%
CC(C)(C)[C@]1(O)CCN2C[C@H]3c4ccccc4CCc4cccc(c43)[C@@H]2C1 [butaclamol]	89.5%	-0.739%
CCN(CC)CCOC(=O)c1ccc(N)cc1Cl [chloroprocaine]	96.4%	-0.316%
CCOC(=S)SSC(=S)OCC [dixanthogen]	66.4%	-2.88%
Cc1cc(O)c(S(=O)(=O)O)cc1Cc1cc(S(=O)(=O)O)c(O)cc1C [dicresulene]	77.3%	0.369%
NS(=O)(=O)c1ccc(-n2nc(C(F)(F)F)cc2-c2ccc(F)cc2)cc1 [mavacoxib]	43.6%	-1.81%
Cc1scc2c1N(C(=O)CN1CCN(C)CC1)c1ccccc1NC2=O [telenzepine]	93.5%	-2.73%
CNC(=O)c1ccc(Cl)c(S(=O)(=O)NC)c1 [tiamizide]	111%	-0.327%
C[C@@H]1O[C@@H](OC[C@H]2O[C@@H](Oc3c(-c4ccc(OCCO)c(OCCO)c4)oc4cc(OCCO)cc(O)c4c3=O)[C@H](O)[C@@H](O)[C@@H]2O)[C@H](O)[C@H](O)[C@H]1O	107%	-5.35%
C[C@]12CC[C@H]3C(=CCc4cc(O)ccc43)[C@@H]1CCC2=O	109%	-4.28%
COc1cc(Cc2cnc(N)nc2N)cc(OC)c1Br [brodimoprim]	52.6%	0.396%
COc1c2ccoc2cc2oc(CO[C@@H]3O[C@H](CO)[C@@H](O)[C@H](O)[C@H]3O)cc(=O)c12 [khelloside]	113%	0.241%
Oc1c(I)cc(I)c2cccnc12 [5,7-Diiodo-8-hydroxyquinoline]	798%	-22.9%
N[C@H](Cc1ccccc1)C(=O)O	108%	-0.443%
CCOC(=O)/C=C/[C@H](C[C@@H]1CCNC1=O)NC(=O)[C@@H](CC(=O)[C@@H](NC(=O)c1cc(C)on1)C(C)C)Cc1ccc(F)cc1 [rupintrivir]	89.9%	-5.36%
CC1(C)O[C@@H]2C[C@H]3[C@@H]4CCC5=CC(=O)C=C[C@]5(C)[C@@]4(F)[C@@H](O)C[C@]3(C)[C@]2(C(=O)CO)O1	110%	0.211%
CCc1ccc(CCOc2ccc(CC3SC(=O)NC3=O)cc2)nc1 (configuration not stated) [Pioglitazone]	106%	2.64%
C=C1c2c(Cl)ccc(O)c2C(O)=C2C(=O)[C@]3(O)C(O)=C(C(N)=O)C(=O)[C@@H](N(C)C)[C@@H]3[C@@H](O)[C@H]12.O=C(O)c1cc(S(=O)(=O)O)ccc1O	91.6%	0.698%
COCCOC(=O)C1=C(C)NC(C)=C(C(=O)OC/C=C/c2ccccc2)C1c1cccc([N+](=O)[O-])c1 (configuration not stated) [Cilnidipine]	89%	2.49%
OC[C@@H](O)[C@@H](O)[C@H](O)[C@H](O)CO	96.3%	-8.38%

SMILES	mCherry [1]	percent effect [2]
CCN(CC)c1nc(=NN)nc(N(CC)CC)[nH]1 [meladrazine]	92.7%	-2.13%
CN(C)CC/C=C1/c2ccccc2Sc2ccc(Cl)cc21 [chlorprothixene]	133%	-2.14%
O=C(O)C(=O)O.[NH-][C@@H]1CCCC[C@H]1[NH-].[Pt+2] [Oxaliplatin]	57.2%	-2.85%
CCCC(CCC)C(=O)O[C@H]1C[C@H]2CC[C@@H](C1)[N+]2(C)C [Anisotropine Methylbromide]	90.1%	-0.727%
C[C@H]1O[C@@H](O[C@H]2[C@@H](O)C[C@H](O[C@H]3[C@@H](O)C[C@H](O[C@H]4CC[C@@]5(C)[C@H](CC[C@@H]6[C@@H]5C[C@@H](O)[C@]5(C)[C@@H](C7=CC(=O)OC7)CC[C@]65O)C4)O[C@@H]3C)O[C@@H]2C)C[C@H](O)[C@@H]1O	15.8%	-16.7%
O=C(NNCS(=O)(=O)O)c1ccncc1 [methaniazide]	94.5%	-3.32%
NC(N)=Nc1nc(CSCC/C(N)=N/S(N)(=O)=O)cs1	86.5%	-1.44%
N[C@@H](CO)C(=O)O [serine]	88.7%	0.165%
COc1ccc2c(c1)CCC(c1ccccc1)=C2c1ccc(OCCN2CCCC2)cc1 [nafoxidine]	45.2%	-5.1%
c1cnc(N2CCN(Cc3ccc4c(c3)OCO4)CC2)nc1 [Piribedil·2HCl]	107%	0.531%
CCC(=O)O[C@]1(C(=O)CCl)[C@@H](C)C[C@H]2[C@@H]3CCC4=CC(=O)C=C[C@]4(C)[C@@]3(F)[C@@H](O)C[C@@]21C [Temovate]	117%	-4.73%
O=[N+]([O-])c1nccn1CC(O)CN1CCCCC1 (configuration not stated) [pimonidazole]	117%	3.31%
CN[C@@H]1[C@H](O)[C@H](NC)[C@H]2O[C@@]3(O)C(=O)C[C@@H](C)O[C@H]3O[C@@H]2[C@H]1O	113%	-9.79%
CC(=O)OCC(=O)[C@H]1CC[C@H]2[C@@H]3CCC4=CC(=O)CC[C@]4(C)[C@H]3CC[C@]12C	67.6%	-2.55%
CCOC(=O)O[C@]1(C(=O)OCCl)CC[C@H]2[C@@H]3CCC4=CC(=O)C=C[C@]4(C)[C@H]3[C@@H](O)C[C@@]21C [Loteprednol]	96.8%	-0.83%
O=C(CCCCCl)NNC(=O)N1Cc2ccccc2Oc2ccc(Cl)cc21 [pinadoline]	83.5%	-10.5%
CCC(c1ccccc1)c1noc(CCN(CC)CC)n1 (configuration not stated)	96.5%	-0.453%
CCCCC[C@](C)(O)/C=C/[C@@H]1[C@@H](C/C=C\CCCC(=O)O)[C@@H](O)C[C@H]1O [Carboprost Tromethamine]	88%	-3.62%
Cc1c2oc3c(C)ccc(C(=O)N[C@@H]4C(=O)N[C@H](C(C)C)C(=O)N5CCC[C@H]5C(=O)N(C)CC(=O)N(C)[C@@H](C(C)C)C(=O)O[C@@H]4C)c3nc-2c(C(=O)N[C@@H]2C(=O)N[C@H](C(C)C)C(=O)N3CCC[C@H]3C(=O)N(C)CC(=O)N(C)[C@@H](C(C)C)C(=O)O[C@@H]2C)c(N)c1=O [dactinomycin]	941%	-24.6%
CC(C(=O)O)c1ccc(-c2cn3ccccc3n2)cc1 (configuration not stated) [miroprofen]	78%	-3.06%
O=C(Nc1ccc(C(=O)O)c(O)c1)c1ccccc1	84.8%	0.162%
CCCCC[C@H](O)/C=C/[C@H]1[C@H](O)CC(=O)[C@@H]1CCCCCCC(=O)O [alprostadil]	100%	-4.27%

SMILES	mCherry [1]	percent effect [2]
CC(C)(Oc1ccc(C(O)c2ccc(Cl)cc2)cc1)C(=O)O (configuration not stated) [fenirofibrate]	70.5%	0.598%
Cc1cc2nc3c(=O)[nH]c(=O)nc-3n(C[C@H](O)[C@H](O)[C@H](O)CO)c2cc1C [riboflavin]	73.4%	-40%
CC(C)NCC(O)COc1ccccc1-n1cccc1 (configuration not stated) [isamoltan]	104%	-2.97%
Clc1ccc(Cn2c(CN3CCCC3)nc3ccccc32)cc1	103%	-3.98%
Oc1cccc(O)c1	110%	-10.1%
Cc1nc2n(c(=O)c1CCN1CCC(c3noc4cc(F)ccc34)CC1)CCCC2O (configuration not stated) [paliperidone]	87.5% and 110%	-1.08% and -4.56%
CC1=Nc2ccc(Cl)cc2S(=O)(=O)N1 [Diazoxide]	106%	1.25%
CCCCCCCCCCC[C@@H](C[C@@H]1OC(=O)[C@H]1CCCCCC)OC(=O)[C@H](CC(C)C)NC=O [orlistat]	115%	-1.5%
CC(=O)OCC1=C(C(=O)O)N2C(=O)[C@@H](NC(=O)Cc3cccs3)[C@H]2SC1	125%	-0.246%
Oc1nc(O)c2cn[nH]c2n1 [oxipurinol]	90.5%	-5.9%
CN1CCN(CC/C=C2/c3ccccc3Sc3ccc(S(=O)(=O)N(C)C)cc32)CC1	119%	-1.4%
C=C1c2cccc(O)c2C(O)=C2C(=O)[C@]3(O)C(O)=C(C(N)=O)C(=O)[C@@H](N(C)C)[C@@H]3[C@@H](O)[C@H]12 [Methacycline]	32.3%	-10.6%
Cc1oc(-c2ccccc2)nc1CCC(=O)c1ccc(CC2SC(=O)NC2=O)cc1 (configuration not stated) [darglitazone]	108%	-4.21%
CC(C)(C)NCC(O)COc1cccc2c1CCC(=O)N2 (configuration not stated) [carteolol]	87.3%	-3.97%
CC1(C)S[C@@H]2[C@H](N3C(=O)[C@@H](c4ccccc4)NC3(C)C)C(=O)N2[C@H]1C(=O)O	110%	-0.488%
CO[C@@H]1[C@@H](OC(N)=O)[C@@H](O)[C@H](Oc2ccc3c(O)c(NC(=O)c4ccc(O)c(CC=C(C)C)c4)c(=O)oc3c2C)OC1(C)C [Novobiocin·Na]	91.3%	1.45%
Cc1cc2c(OCC(CNC(C)(C)C)OC(=O)c3ccccc3)cccc2[nH]1 (configuration not stated) [bopindolol]	111%	-2.18%
CCOC(=O)O[C@]1(C(=O)COC(=O)CC)CC[C@H]2[C@@H]3CCC4=CC(=O)C=C[C@]4(C)[C@H]3[C@@H](O)C[C@@]21C [prednicarbate]	74%	0.171%
CC1=C(C(=O)O)N2C(=O)[C@@H](NC(=O)[C@H](N)C3=CCC=CC3)[C@H]2SC1 [cefradine]	73.2%	-3.61%
CCCCCCCCCCCCCCCC(=O)NCCO [palmidrol]	85.6%	-5.54%
CN1C(CSCC(F)(F)F)Nc2cc(Cl)c(S(N)(=O)=O)cc2S1(=O)=O (configuration not stated) [polythiazide]	115%	-1.64%
CCCN(CCC)S(=O)(=O)c1ccc(C(=O)O)cc1 [probenecid]	101%	-1.75%
